Measurements reported in PubChem BioAssay AID686937 (Drosophila RNAi Screening Center, 2013)
The deposit covers about 23,000 reagents; this is a random part of those with a known target gene and a result. 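Reduced-secretion tags in replicate 1 do not always agree with the z-scores; no criterion for assigning the tags was given.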 Names joined by + are all predicted targets of the reagent. Not all columns of the deposit are shown. Not stated in the record: the amount of reagent.

- Screen: 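Knock-downs that reduce output of a secreted reporter enzyme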 (primary screen)
- System: Drosophila S2 cells expressing secreted horseradish peroxidase
- Reagent: long dsRNA against Drosophila genes
- Timing: about 5.5 days (5 days dsRNA, then 12 h reporter induction)
- Conditions: reporter expression induced after 5 days of dsRNA, read 12 h later; inducer not stated
- Read-out: 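After 5 days of dsRNA and 12 h of reporter induction, medium peroxidase read by chemiluminescence and scored as per-plate z-score; higher values mean more reporter released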
- Direction: z-score: higher = more reporter secreted into medium

ATPsyngamma [DRSC14094] | z-score, replicate 1: -0.04
CG32544 [DRSC20033] | z-score, replicate 1: 0.33
Tasp1 [DRSC10495] | z-score, replicate 1: 0.34
Pgk [DRSC00769] | z-score, replicate 1: -0.07
Eig71Ek [DRSC11158] | z-score, replicate 1: 0.42
CG4650 [DRSC02767] | z-score, replicate 1: 0.34
ND-B17.2 [DRSC00577] | z-score, replicate 1: 0.14
CG6083 [DRSC10580] | z-score, replicate 1: 0.18
CG31807 [DRSC01550] | z-score, replicate 1: -0.04
CG5697 [DRSC15858] | z-score, replicate 1: 0.25
Srp54k [DRSC11289] | z-score, replicate 1: -3.35; phenotype, replicate 1: reduced secretion
Andorra [DRSC19475] | z-score, replicate 1: 0.15
CG31523 [DRSC12009] | z-score, replicate 1: 0.71
CG31523 [DRSC12337] | z-score, replicate 1: 0.39
Grl65a [DRSC08837] | z-score, replicate 1: 0.56
aPKC [DRSC05515] | z-score, replicate 1: 0.26
aPKC [DRSC07639] | z-score, replicate 1: -0.05
RpL18 [DRSC11016] | z-score, replicate 1: 0.64; phenotype, replicate 1: reduced secretion
RpL18 [DRSC22323] | z-score, replicate 1: -1.13; phenotype, replicate 1: reduced secretion
ATP6 (retired record) [DRSC21278] | z-score, replicate 1: 0.4
CG17264 [DRSC00500] | z-score, replicate 1: -0.06
ND-24L [DRSC10650] | z-score, replicate 1: 0.34
CG8093 [DRSC07078] | z-score, replicate 1: 0.13
CG31921 [DRSC00013] | z-score, replicate 1: 0.62
CG14864 [DRSC14987] | z-score, replicate 1: 0.49
BckdhA [DRSC16395] | z-score, replicate 1: 0.21
CG11655 [DRSC19413] | z-score, replicate 1: 0.46
fng [DRSC11455] | z-score, replicate 1: 0.69
fng [DRSC11887] | z-score, replicate 1: -0.23
fng [DRSC21935] | z-score, replicate 1: 0.37
barc [DRSC11792] | z-score, replicate 1: 0.01
CG11570 [DRSC09844] | z-score, replicate 1: 0.28
Arf1 [DRSC11606] | z-score, replicate 1: -2.16; phenotype, replicate 1: reduced secretion
CG7924 [DRSC10931] | z-score, replicate 1: 0.41
Orct [DRSC16777] | z-score, replicate 1: 0.32
CG13315 [DRSC09986] | z-score, replicate 1: 0.31
fj [DRSC07619] | z-score, replicate 1: 0.35
nerfin-1 [DRSC08729] | z-score, replicate 1: -9.9; phenotype, replicate 1: reduced secretion
CG13884 [DRSC08354] | z-score, replicate 1: 0.21
Sirup [DRSC03031] | z-score, replicate 1: 0.19
CheA86a [DRSC12839] | z-score, replicate 1: -0.46
CR32733 + CG32797 [DRSC17705] | z-score, replicate 1: -2.74; phenotype, replicate 1: reduced secretion
mAcon1 [DRSC01853] | z-score, replicate 1: 0.75
Pcp [DRSC03395] | z-score, replicate 1: 0.13
Rap1 [DRSC08686] | z-score, replicate 1: 0.07
AP-1sigma [DRSC15899] | z-score, replicate 1: -6.56; phenotype, replicate 1: reduced secretion
CG18273 [DRSC18150] | z-score, replicate 1: 0.61
CG18273 [DRSC18505] | z-score, replicate 1: 0.34
CG34248 [DRSC09426] | z-score, replicate 1: 0.04
CG31676 [DRSC02387] | z-score, replicate 1: -0.64
TotE [DRSC21355] | z-score, replicate 1: 0.41

Just “z-score, replicate 1”, for 7 of the entries above:
Arf1 [DRSC11606]: -2.16
CG7924 [DRSC10931]: 0.41
Orct [DRSC16777]: 0.32
CG13315 [DRSC09986]: 0.31
fj [DRSC07619]: 0.35
nerfin-1 [DRSC08729]: -9.9
CG13884 [DRSC08354]: 0.21
